30 sequences from PubChem BioAssay AID1347426 (Functional Genomics Laboratory (NCATS/FGL), 2020) can be followed below.

About 1,400 (4.5%) of roughly 31,000 sequences were called active.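 Rule for the calls: active = median seed-adjusted z-score above 1 or below -1; inactive = the rest.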 The list shows a part of the results.

The assay can be described thus: Novel Modifiers of Survival Motor Neuron (SMN) Protein: Gene Identification via Genome-wide siRNA Screen.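 Note: luminescence tracks full-length SMN protein made from the SMN2 reporter.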 The note with it: HEK293T SMN2-luciferase reporter, siRNA knockdown, 72 h; actives lie on both sides. The procedure, abridged: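 Steps: spot 1 pmol siRNA, add Lipofectamine RNAiMax in serum-free DMEM, seed HEK293T SMN2–luciferase reporter cells; incubate 72 h at 37 °C; add ONE-Glo; normalize luminescence to control siRNA, log10, MAD. Candidates: |MAD| > 1.0.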
A general note: A reporter such as luciferase makes a cellular process visible.
For the sequence CUAUGGACCAGUAAUCUGATT against COX7A2, the median seed-adjusted z-score was inactive: -0.0808.

With GCACUCCACUAUGAUCGGATT against GJD2, the median seed-adjusted z-score was inactive: -0.229.

On to CACCCGUGGUUGUUACACUTT against CDK4, for which the median seed-adjusted z-score was inactive: 0.346.

For the sequence CUGUGGGAACUAUUAAAAATT against PCGF5, the median seed-adjusted z-score was inactive: 0.25.

Regarding GAGUAUCUGUUGUCCAGGATT against PDIK1L, the median seed-adjusted z-score was inactive: 0.0682.

With CUCUGUUGAAGGUAGCAAATT against TIGD4, the median seed-adjusted z-score was inactive: -0.553.

For the sequence GGAAGUAUGUUCUACAAGATT against SAMD7, the median seed-adjusted z-score is inactive: 0.161.

In the case of CAUCAUCAAUGGAAGCACUTT against PLXNA3, the median seed-adjusted z-score was inactive: 0.255.

As for GGCUACUACUGCAACUGUATT against ITGB3, the median seed-adjusted z-score is inactive: 0.456.

Consider GAGACAACCUGCAACGACATT against GDI1, for which the median seed-adjusted z-score was inactive: 0.198.

For CCACCUCGGAUGGAGGUUATT against INHA, the median seed-adjusted z-score was inactive: 0.231.

Consider CGAAGUUCAAGUAUAGGUATT against RAG1, for which the median seed-adjusted z-score was active: -1.35.

With GGAGUGGUCUGAUAGAACUTT against PLA2R1, the median seed-adjusted z-score was inactive: -0.0304.

As for GUGAGAAGAUGAUCACGAATT against PHYH, the median seed-adjusted z-score is inactive: 0.208.

On to ACAGUCAGCUGUUAGAGAATT against PFDN1, for which the median seed-adjusted z-score is inactive: 0.212.

Take CCGGUGCUCUACGUCUUCATT against LTB4R2: the median seed-adjusted z-score is inactive: -0.26.

With CGGUUGAACCCUACACGAATT against STAT1, the median seed-adjusted z-score was inactive: -0.0526.

For GGACUUGAGAGAUCUCUUUTT against DAB1, the median seed-adjusted z-score was inactive: 0.307.

Turning to AGAGAAUUUAUAUCGAAGATT against ZNF492, the median seed-adjusted z-score was inactive: 0.0668.

Consider CCUAGUGUUUGUGAAAUAATT against ATP6V0B, for which the median seed-adjusted z-score was inactive: 0.

Turning to GCAUCCCACAUUAAGUCAATT against B3GALNT2, the median seed-adjusted z-score is inactive: -0.227.

For GGUCCUAAAAGAUAUCUGUTT against TGM7, the median seed-adjusted z-score was inactive: 0.244.

With GCUCAGUUUAAUACACCUATT against PDLIM3, the median seed-adjusted z-score is inactive: -0.297.

CUUCUACAGUGGUCACCUATT against VPS29: the median seed-adjusted z-score was inactive: -0.408.

In the case of GCACCUAUCUGGACAUGAATT against VPS18, the median seed-adjusted z-score is inactive: 0.181.

With GACUCGUCAAGGACAGAUATT against LPHN3, the median seed-adjusted z-score is inactive: -0.0576.

As for GCACGGCUUUUGUUCAGAUTT against TERT, the median seed-adjusted z-score is inactive: -0.698.

With GAUUCACAACCAUUCCACATT against GJC1, the median seed-adjusted z-score was inactive: -0.0291.

Turning to CGGUAUUACUCGAACGUAUTT against TPCN2, the median seed-adjusted z-score is inactive: -0.341.

Take CAGGAACCCUUGAAGGUAATT against MAP1A: the median seed-adjusted z-score was inactive: -0.17.
